Data as given in paper PMC11696352.

The chains behind the UniProt entries cited, without tags or fusion partners.
UniProt P52294: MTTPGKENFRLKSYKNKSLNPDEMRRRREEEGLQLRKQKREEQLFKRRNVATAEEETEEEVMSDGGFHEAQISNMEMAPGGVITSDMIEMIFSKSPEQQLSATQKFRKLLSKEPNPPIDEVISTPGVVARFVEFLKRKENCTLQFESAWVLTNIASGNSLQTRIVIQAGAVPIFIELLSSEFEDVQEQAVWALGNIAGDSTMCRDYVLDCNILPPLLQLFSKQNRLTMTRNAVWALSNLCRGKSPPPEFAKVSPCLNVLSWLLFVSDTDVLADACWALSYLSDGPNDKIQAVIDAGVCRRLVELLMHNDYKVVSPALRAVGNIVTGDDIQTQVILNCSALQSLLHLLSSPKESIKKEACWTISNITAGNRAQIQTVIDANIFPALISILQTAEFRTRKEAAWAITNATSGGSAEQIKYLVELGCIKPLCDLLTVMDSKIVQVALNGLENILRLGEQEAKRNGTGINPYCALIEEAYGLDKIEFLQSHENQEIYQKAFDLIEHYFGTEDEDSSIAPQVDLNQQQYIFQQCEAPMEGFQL

T1: Flag-tagged GCLM WT (glutamate-cysteine ligase modifier subunit) (UniProt P48507)
T1 sequence: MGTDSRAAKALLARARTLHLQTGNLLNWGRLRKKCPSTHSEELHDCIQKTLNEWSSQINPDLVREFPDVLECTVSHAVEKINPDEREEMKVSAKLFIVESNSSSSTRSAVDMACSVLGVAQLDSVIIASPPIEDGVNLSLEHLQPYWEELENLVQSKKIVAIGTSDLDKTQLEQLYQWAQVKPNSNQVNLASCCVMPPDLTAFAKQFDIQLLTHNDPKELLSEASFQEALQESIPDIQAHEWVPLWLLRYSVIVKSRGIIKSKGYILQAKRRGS

B1: NF-κB-repressing factor (NKRF), endogenous (protein, UniProt O15226 1-690)
chain: MEKILQMAEGIDIGEMPSYDLVLSKPSKGQKRHLSTCDGQNPPKKQAGSKFHARPRFEPVHFVASSSKDERQEDPYGPQTKEVNEQTHFASMPRDIYQDYTQDSFSIQDGNSQYCDSSGFILTKDQPVTANMYFDSGNPAPSTTSQQANSQSTPEPSPSQTFPESVVAEKQYFIEKLTATIWKNLSNPEMTSGSDKINYTYMLTRCIQACKTNPEYIYAPLKEIPPADIPKNKKLLTDGYACEVRCQNIYLTTGYAGSKNGSRDRATELAVKLLQKRIEVRVVRRKFKHTFGEDLVVCQIGMSSYEFPPALKPPEDLVVLGKDASGQPIFNASAKHWTNFVITENANDAIGILNNSASFNKMSIEYKYEMMPNRTWRCRVFLQDHCLAEGYGTKKTSKHAAADEALKILQKTQPTYPSVKSSQCHTGSSPRGSGKKKDIKDLVVYENSSNPVCTLNDTAQFNRMTVEYVYERMTGLRWKCKVILESEVIAEAVGVKKTVKYEAAGEAVKTLKKTQPTVINNLKKGAVEDVISRNEIQGRSAEEAYKQQIKEDNIGNQLLRKMGWTGGGLGKSGEGIREPISVKEQHKREGLGLDVERVNKIAKRDIEQIIRNYARSESHTDLTFSRELTNDERKQIHQIAQKYGLKSKSHGVGHDRYLVVGRKRRKEDLLDQLKQEGQVGHYELVMPQAN

Experiments:
[1] = biological target: T1, Flag-tagged GCLM WT (glutamate-cysteine ligase modifier subunit); experiment: affinity purification with mass spectrometry; anti-FLAG or IgG immunoprecipitation from total lysate or cytoplasmic and nuclear fractions of 293T cells overexpressing Flag-GCLM, oxaliplatin treatment (40 μM, 24 h); LC-MS/MS
[2] = biological target: T1, Flag-tagged GCLM WT (glutamate-cysteine ligase modifier subunit); experiment: as above; remark: listed apart in the source

Row | Molecule | binding [1] | binding [2]
1 | importin α5 (also known as KPNA1), endogenous (from UniProt P52294 1-538) | binds | –
2 | B1 | – | binds

Read-outs that look alike come from different tables or passages of the source. No constants are given. Whether binding was seen depends on the method and setting. In cells and extracts the contact can be indirect. Here binding means that the protein was enriched with, or labelled near, the bait; the list need not be complete. Where a sequence is shown, tags or fusion partners need not be part of it.
